Measured values reported in paper PMC7305291, “Cryo-EM snapshots of mycobacterial arabinosyltransferase complex EmbB2-AcpM2” (Protein & Cell, 2020).
Numbering of substitutions follows the chain as printed. No constants are given. Whether binding was seen depends on the method and setting. Binding seen in cells or lysates may run through a third protein. Here binding means that the protein was enriched with, or labelled near, the bait; the list need not be complete. For some assays here: A no says only that the protein was not detected with the bait. Tags and fused reporters may be left off the sequences shown.

Protein sequences, listed by entry. Tags and fused reporters are not part of them.
UniProt A0R0B3: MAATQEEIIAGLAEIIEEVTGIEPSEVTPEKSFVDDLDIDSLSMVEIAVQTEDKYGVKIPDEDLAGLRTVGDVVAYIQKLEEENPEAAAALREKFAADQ

Key:
[1] = molecular target: T1, EmbB triple-alanine mutant (R249, R253, and R454) (Mycobacterium smegmatis) (UniProt Q50395); test: co-purification (silver-stained gel, mass spectrometry); EmbB overexpressed in M. smegmatis and purified; endogenous AcpM in the purified sample identified by silver staining (Fig. S1C) and mass spectrometry (Fig. S1D)
T1 sequence: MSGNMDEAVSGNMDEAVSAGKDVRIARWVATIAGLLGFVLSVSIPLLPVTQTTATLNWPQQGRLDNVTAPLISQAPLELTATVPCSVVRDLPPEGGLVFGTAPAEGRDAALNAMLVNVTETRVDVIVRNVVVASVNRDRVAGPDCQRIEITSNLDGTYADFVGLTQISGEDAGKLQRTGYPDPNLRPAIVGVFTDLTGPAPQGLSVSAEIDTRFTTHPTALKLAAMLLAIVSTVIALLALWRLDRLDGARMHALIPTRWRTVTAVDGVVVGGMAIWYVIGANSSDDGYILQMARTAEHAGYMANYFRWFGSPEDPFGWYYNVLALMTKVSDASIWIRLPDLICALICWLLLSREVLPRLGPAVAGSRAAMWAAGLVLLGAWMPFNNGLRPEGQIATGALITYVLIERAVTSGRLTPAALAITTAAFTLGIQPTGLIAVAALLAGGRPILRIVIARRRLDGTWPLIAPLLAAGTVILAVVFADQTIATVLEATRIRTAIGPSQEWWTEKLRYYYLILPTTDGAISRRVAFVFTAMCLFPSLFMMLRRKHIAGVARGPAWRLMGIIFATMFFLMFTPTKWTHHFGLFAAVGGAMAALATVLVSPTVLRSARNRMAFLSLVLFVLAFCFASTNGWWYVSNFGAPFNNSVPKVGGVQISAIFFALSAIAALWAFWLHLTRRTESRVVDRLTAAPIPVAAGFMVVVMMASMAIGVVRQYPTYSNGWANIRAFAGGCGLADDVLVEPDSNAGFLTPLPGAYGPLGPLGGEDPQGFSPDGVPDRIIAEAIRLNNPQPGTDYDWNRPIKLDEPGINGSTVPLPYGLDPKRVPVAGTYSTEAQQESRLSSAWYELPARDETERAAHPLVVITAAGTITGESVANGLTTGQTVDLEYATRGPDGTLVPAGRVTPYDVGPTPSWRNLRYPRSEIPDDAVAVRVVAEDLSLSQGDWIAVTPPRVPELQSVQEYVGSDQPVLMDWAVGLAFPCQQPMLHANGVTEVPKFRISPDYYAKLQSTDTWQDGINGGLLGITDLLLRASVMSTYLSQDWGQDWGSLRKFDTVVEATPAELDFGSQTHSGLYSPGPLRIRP

[2] = molecular target: T2, Mycobacterium smegmatis arabinosyltransferase EmbB (MSMEG_6389) (Mycobacterium smegmatis) (UniProt Q50395); test: as above
T2 sequence: T1 sequence with A249R, A253R, A454R

binding [1]: no binding
binding [2]: binds
Substance: acyl-carrier-protein AcpM (MSMEG_4326) (from UniProt A0R0B3 1-99)
